Data taken from publication PMC12706091.
These are yes or no findings as the source states them, for the method shown. Binding can be weak; no strength is given. For part of these data: Where a sequence is shown, tags or fusion partners need not be part of it. For part of these data: Binding seen in cells or lysates may run through a third protein.

Tests used:
[1] = target: T1, Flag-TIA1 (expressed in HEK293T) (UniProt P31483); experiment: co-IP; HEK293T co-transfected, NP40 lysis buffer, anti-Flag M2 or anti-HA beads, 3 h at 4 °C, wash with 300 mM NaCl; with or without overexpressed Myc-ANXA7
T1 sequence: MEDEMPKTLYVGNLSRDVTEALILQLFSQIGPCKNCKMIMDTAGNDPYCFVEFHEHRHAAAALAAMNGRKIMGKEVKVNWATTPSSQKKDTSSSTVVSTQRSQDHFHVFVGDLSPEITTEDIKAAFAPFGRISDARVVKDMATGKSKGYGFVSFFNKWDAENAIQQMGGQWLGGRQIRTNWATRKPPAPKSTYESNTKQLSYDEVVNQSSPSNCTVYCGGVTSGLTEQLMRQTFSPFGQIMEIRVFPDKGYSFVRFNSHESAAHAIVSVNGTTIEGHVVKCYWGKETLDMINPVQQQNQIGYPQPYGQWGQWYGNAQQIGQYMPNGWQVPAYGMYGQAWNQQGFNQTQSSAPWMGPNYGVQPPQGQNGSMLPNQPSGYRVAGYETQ

[2] = target: T2, GST-ANXA7 (UniProt Q6IRJ7); experiment: pull-down; purified GST fusion added to P14 rat cortical lysate in RIPA buffer, 4 °C, captured on glutathione resin, NP40 wash buffer; western blot; only the target purified
T2 sequence: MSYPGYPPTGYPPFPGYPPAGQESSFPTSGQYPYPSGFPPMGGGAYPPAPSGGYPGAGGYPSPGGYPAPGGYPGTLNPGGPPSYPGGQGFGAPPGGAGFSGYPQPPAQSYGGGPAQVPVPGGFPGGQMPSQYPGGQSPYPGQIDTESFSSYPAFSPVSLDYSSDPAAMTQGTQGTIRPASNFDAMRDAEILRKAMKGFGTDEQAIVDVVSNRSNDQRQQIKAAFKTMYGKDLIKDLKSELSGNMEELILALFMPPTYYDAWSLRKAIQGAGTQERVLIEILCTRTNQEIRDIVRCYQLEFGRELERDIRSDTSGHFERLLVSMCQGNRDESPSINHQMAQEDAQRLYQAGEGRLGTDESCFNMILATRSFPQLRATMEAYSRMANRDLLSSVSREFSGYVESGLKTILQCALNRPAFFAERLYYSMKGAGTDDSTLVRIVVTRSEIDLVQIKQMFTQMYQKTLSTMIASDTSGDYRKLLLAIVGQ

[3] = target: T3, Annexin A7 (ANXA7), endogenous (rat (endogenous in P14 rat brain and in cultured rat hippocampal neurons)) (UniProt Q6IRJ7); experiment: proximity ligation; endogenous proteins in fixed DIV12 rat hippocampal neurons, NaveniFlex Cell MR Atto647N kit, axonal PLA density; control, ANXA7 knock-down, rescue with A7-res
T3 sequence: T2 sequence

[4] = target: T4, HA-tagged TIA1 (expressed in rat cortical neurons) (UniProt P31483); experiment: co-IP; DIV11 rat cortical neurons electroporated with HA-TIA1, anti-HA magnetic beads, NP40 lysis buffer; control, shANXA7 knock-down or Myc-ANXA7 overexpression
T4 sequence: T1 sequence

[5] = target: recombinant Flag-DIC1B (rFlag-DIC1B); experiment: pull-down; 2 μg Flag-DIC1B on anti-Flag magnetic beads, 2 μg each of Myc-ANXA7 and TIA1 added; NP40 lysis buffer with 0.5 M L-arginine, 4 °C; with or without 1 mM CaCl2; western blot; both purified
[6] = target: cytoplasmic dynein intermediate chain 1B (DIC1B), endogenous (rat (endogenous in P14 rat brain and in cultured rat neurons)); experiment: proximity ligation; endogenous proteins in fixed DIV12 rat hippocampal neurons, NaveniFlex Cell MR Atto647N kit, axonal PLA density; control, ANXA7 knock-down, rescue with A7-res
[7] = target: recombinant Flag-DIC1B (rFlag-DIC1B); experiment: pull-down; 2 μg Flag-DIC1B on anti-Flag magnetic beads, 2 μg TIA1 added, without Myc-ANXA7; NP40 lysis buffer with 0.5 M L-arginine, 4 °C; western blot; both purified
[8] = target: DIC1B-mRFP; experiment: FRET or BRET; FLIM-FRET in living rat hippocampal neurons (DIV9), donor EGFP-TIA1, acceptor DIC1B-mRFP, axons and soma; control, ANXA7 knock-down, knock-down with Myc-ANXA7-res

Molecule: HA-DIC1B (expressed in HEK293T)
- binding [1]: binds

Molecule: T-cell intracellular antigen 1 (TIA1), endogenous
- binding [2]: binds
- binding [3]: binds

Molecule: cytoplasmic dynein intermediate chain 1B (DIC1B), endogenous
- binding [4]: binds
- binding [2]: binds

B1: recombinant Myc-ANXA7 (rMyc-ANXA7) (protein, UniProt Q6IRJ7 1-485)
chain: T2 sequence
- binding [5]: binds

B2: Annexin A7 (ANXA7), endogenous (protein, UniProt Q6IRJ7 1-485)
chain: T2 sequence
- binding [6]: binds

B3: recombinant TIA1 (rTIA1) (protein, UniProt P31483 1-386)
chain: T1 sequence
- binding [7]: binds weakly

B4: EGFP-TIA1 (protein, UniProt P31483 1-386)
chain: T1 sequence
- binding [8]: binds
